Laboratory results from patent publication US20200190135A1, “LASSO STRUCTURES AND THEIR SYNTHESIS” (ChromaCon AG, priority 2016, published 2020).
Some results were stated once for a whole list of compounds, not compound by compound. At least one peptide structure holds a part that was inferred or is arguable (an end, a ring closure or a residue). Numbered stars: 1 amine (or outer) side, 2 acyl side, 3 side chain; on linkers, the order of the positions; unused ones are H or OH. Square brackets hold non-standard residues; d marks the D form. Peptide text beside a SMILES is read from it. * marks the point of attachment. ξ: configuration not given here. X3 = Cc1cc(C)cc(C(=O)NCCOCCN(CC(=O)[*:2])[*:1])c1; X1 = O=C(NCCOCCN(CC(=O)[*:2])[*:1])c1ccc(F)cc1; X2 = c1cc2c(cc1CCN*)OCCOCCOCCOCCOCCOCCO2; X5 = C1COCCOCCOCCN(*)CCOCCOCCOCCO1; X4 = C1COCCOCCOCC(N*)COCCOCCOCCO1; Thr(3ξ) = CC(O)[C@H](N)C(=O)O; GABA = NCCCC(=O)O; Cam = NC(=O)C*

Chains of the proteins cited; added tags and fusions are not shown. Residues count along the entry.
UniProt P06873, 106-384: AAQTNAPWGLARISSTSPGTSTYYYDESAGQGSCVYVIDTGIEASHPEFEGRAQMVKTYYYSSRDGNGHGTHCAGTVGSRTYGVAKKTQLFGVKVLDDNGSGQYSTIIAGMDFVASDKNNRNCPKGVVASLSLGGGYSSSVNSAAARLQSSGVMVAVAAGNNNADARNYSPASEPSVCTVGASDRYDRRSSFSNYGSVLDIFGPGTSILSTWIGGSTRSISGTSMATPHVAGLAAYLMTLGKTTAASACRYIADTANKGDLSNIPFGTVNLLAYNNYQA

Molecular target: proteinase K (Parengyodontium album, UniProt P06873)
Assay: Proteolytic stability, incubation with proteinase K
Assay type: in vitro ADME
Conditions: incubation for 24 h with proteinase K (FIG. 14)
Description: Proteolytic stability of lasso compounds L1, L2, and L3 in comparison to their branched macrocyclic compounds B1, B2, and B3 and the cyclic peptide analogue C1 (see FIG. 11) was tested in separate experiments by incubation for 24 h with chymotrypsin (FIG. 12), trypsin (FIG. 13) and proteinase K (FIG. 14).

Structure (SMILES)	stability versus proteinase K degradation
Cc1cc(C)cc(C(=O)NCCOCCNCC(=O)N[C@@H](Cc2ccccc2)C(=O)NCC(=O)N[C@@H](CSCC(N)=O)C(=O)N[C@@H](Cc2ccccc2)C(=O)N[C@H](Cc2c[nH]c3ccccc23)C(=O)N[C@@H](CCCCN)C(=O)N[C@H](C(=O)N[C@@H](CC(C)C)C(=O)NCCCC(=O)NC2COCCOCCOCCOCCOCCOCCOC2)C(C)O)c1 (stereo partly drawn) [L2] (H-[X3]FGC(Cam)F[dW]K[Thr(3ξ)]L[GABA]-X4)	significantly greater stability
Cc1cc(C)cc(C(=O)NCCOCCNCC(=O)N[C@@H](Cc2ccccc2)C(=O)NCC(=O)N[C@@H](CSCC(N)=O)C(=O)N[C@@H](Cc2ccccc2)C(=O)N[C@H](Cc2c[nH]c3ccccc23)C(=O)N[C@@H](CCCCN)C(=O)N[C@H](C(=O)N[C@@H](CC(C)C)C(=O)NCCCC(=O)N2CCOCCOCCOCCOCCOCCOCCOCC2)C(C)O)c1 (stereo partly drawn) [L3] (H-[X3]FGC(Cam)F[dW]K[Thr(3ξ)]L[GABA]-X5)	significantly greater stability
CC(C)C[C@H](NC(=O)[C@@H](NC(=O)[C@H](CCCCN)NC(=O)[C@@H](Cc1c[nH]c2ccccc12)NC(=O)[C@H](Cc1ccccc1)NC(=O)[C@H](CSCC(N)=O)NC(=O)CNC(=O)[C@H](Cc1ccccc1)NC(=O)CNCCOCCNC(=O)c1ccc(F)cc1)[C@@H](C)O)C(=O)NCCCC(=O)NCCc1ccc2c(c1)OCCOCCOCCOCCOCCOCCO2 [L1] (H-[X1]FGC(Cam)F[dW]KTL[GABA]-X2)	significantly greater stability
